Binding data for four molecules are collected here from article PMC6294250.

No constants are given. Whether binding was seen depends on the method and setting. Binding calls can cover weak binding; strength is not graded here. For some of these results: Binding seen in cells or lysates may run through a third protein. For some of these results: Where a sequence is shown, tags or fusion partners need not be part of it.

Assay [1] addresses TGNap1-CFP (Arabidopsis thaliana). Put plainly: FRET or BRET; acceptor photobleaching FRET at the TGNs in cells of stable Arabidopsis transformants; donor TGNap1-CFP, acceptor YFP fusions bleached for 10 s. (In BRET a luciferase serves as donor, and the signal depends on an acceptor being close.)
Assay [2] addresses TGNap1 (yeast two-hybrid bait) (Arabidopsis thaliana) (UniProt F4KCQ2). The assay can be described thus: two-hybrid; direct assay, Matchmaker LexA system, bait in pGilda, prey in pB42AD-GW, co-transformed into yeast strain EGY48; β-galactosidase assay, plates after 3 days at 28 °C.

B1: YFP-YIP4A (protein, UniProt O64614 1-281)
chain: MSQGDTVPLHPSSQSDIDEIENLINESVQSGPGTVLAARPPSPTRPSIPVSSSSSSSPFMQSNLPPLHPSSSAQKVTHVPVPPPLPAVSNSSNFQGASAFGSPPNTLTEPVWDTVKRDLSRIVSNLKLVVFPNPYREDPGKALRDWDLWGPFFFIVFLGLTLSWSASVKKSEVFAVAFALLAAGAVILTLNVLLLGGHIIFFQSLSLLGYCLFPLDVGAVICMLKDNVILKMVVVSVTLAWSSWAAYPFMSSAVNPRRKALALYPVFLMYVSVGFLIIAIN
As for B1, the binding entry in assay [1] is on record as “binds”.

B2: YFP-YIP4B (protein, UniProt Q93VH1 1-280)
chain: MSHNDTIPLYQSSQSDIDEIENMMNDSFQSGPGTVLPARPPSPIRPSIPVSSSPFVQSNLPPLPPSSSSSTQKVMPVPAPPPLPSAGNEGNKSIGGSGFGSPPNTLTEPVWDTVKRDLSRIVSNLKLVVFPNPYREDPGKALRDWDLWGPFFFIVFLGLTLSWSASVKKSEVFAVAFALLAAGAVILTLNVLLLGGHIIFFQSLSLLGYCLFPLDVGAVICMLKDNVILKMVVVSVTLAWSSWAAYPFMSAAVNPRRKALALYPVFLMYVSVGFLIIAIN
B2: in assay [1], the binding entry is given as “binds”.

B3: N-terminal cytosolic domain of YIP4A (aa 1-140) (domain or fragment, UniProt O64614 1-140)
chain: MSQGDTVPLHPSSQSDIDEIENLINESVQSGPGTVLAARPPSPTRPSIPVSSSSSSSPFMQSNLPPLHPSSSAQKVTHVPVPPPLPAVSNSSNFQGASAFGSPPNTLTEPVWDTVKRDLSRIVSNLKLVVFPNPYREDPG
Regarding B3, in assay [2], the binding result was “binds”.

B4: N-terminal cytosolic domain of YIP4B (aa 1-143) (domain or fragment, UniProt Q93VH1 1-143)
chain: MSHNDTIPLYQSSQSDIDEIENMMNDSFQSGPGTVLPARPPSPIRPSIPVSSSPFVQSNLPPLPPSSSSSTQKVMPVPAPPPLPSAGNEGNKSIGGSGFGSPPNTLTEPVWDTVKRDLSRIVSNLKLVVFPNPYREDPGKALR
Regarding B4, the binding result in assay [2] is listed as “binds”.
